# From patent US20160039742A1, “EXTRACTION OF TRAMADOL FROM NAUCLEA LATIFOLIA SMITH” ([…] FOURIER - GRENOBLE 1, priority 2013, published 2016)
# Tested on: acetic acid-induced abdominal constrictions in mice
# Test: Acetic acid induced abdominal constriction (writhing) test
# Assay type: in vivo
# Settings: 5 mg/kg s.c.
# Procedure: Experiments in mice were performed on C57BL/6 male mice (Janvier, Le-Genest-St-Isle, France) weighting 26-35 g, housed in individual cages with food and water ad libitum and kept in a 12 hours/12 hours light-dark cycle. All animal experimentations were carried out in accordance with the rules of the European Committee Council Directive of Nov. 24, 1986 (86/609/EEC) and all procedures were approved by the local department of the veterinarian services for the use and care of animals (agreement #380612). All efforts were made to minimize animal suffering and reduce the number of animals used in each series of experiments.
# One hour after oral administration of these substances, each animal was injected i.p. with 0.6% acetic acid in a volume of 10 ml/kg body weight. After acetic acid injection, the number of stretching or writhing responses per animal was recorded during 30 min after a latency period of 5 min. Inhibition was expressed in percentage.
# Data were analyzed by two-way Anova followed by Tukey's (HSD) multi-comparison test.
smiles,measurement,value
"CN1CC[C@]23c4c5ccc(O)c4O[C@H]2[C@@H](O)C=C[C@H]3[C@H]1C5 [Morphine, reference compound]",Acetic acid-induced writhing inhibition (%),59.2%
